No constants are given. Whether binding was seen depends on the method and setting. Some binding calls cover weakened binding; strength is not graded here.

By UniProt entry, the sequences of proteins in these tests, tags left out. Residues count along the entry.
UniProt P21583, residues 26-166: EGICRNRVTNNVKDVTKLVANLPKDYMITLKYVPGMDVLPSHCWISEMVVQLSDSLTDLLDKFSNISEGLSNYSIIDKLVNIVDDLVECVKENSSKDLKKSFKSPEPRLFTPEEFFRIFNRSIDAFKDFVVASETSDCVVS

Here are results for one substance from paper doi:10.1101/2022.09.08.506998.

This test deals with stem cell factor (SCF) (UniProt P21583). Kind of test: cryo-EM structure.

Consider “stem cell factor (SCF) (from UniProt P21583 26-166) (ligand)”, for which the binding result is “binds”.
